Taken from: PubChem BioAssay AID504774 (Drosophila RNAi Screening Center, 2011)
Purpose: 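Fly genes whose loss alters survival after alkylation damage to DNA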 (primary screen). System: Drosophila Kc167 cells. Reagents: long dsRNA against Drosophila genes, about 0.25 µg dsRNA per well. Timing: about 6 days: 3 days knock-down, then 3 days with or without MMS. Treatment: methyl methanesulphonate 0.004% (w/v) for 3 days after knock-down. Measurement: 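ATP-dependent luminescence as a measure of live cells in MMS-exposed wells, quantile normalised within each plate, with replicate values also given as a mean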. Direction: mean viability with MMS: higher = more surviving cells after MMS.
The screen tested about 23,000 reagents; below is a random part of those with a known target gene and a result. 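Values are quantile-normalised luminescence on an arbitrary scale; higher means more cells surviving MMS.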 Reagents against one gene are numbered here. A plus sign joins genes that one reagent is predicted to hit. Not all columns of the deposit are shown.

orb (oo18 RNA-binding protein) #1 showed mean viability with MMS 2.87e6. With knock-down of orb (oo18 RNA-binding protein) #2, the record shows mean viability with MMS 3.51e6. After knock-down of Obp19c (Odorant-binding protein 19c) the results were mean viability with MMS 3.49e6. Against Letm1 the deposit lists mean viability with MMS 3.00e6. For CG8915 the deposit lists mean viability with MMS 3.71e6. Andorra scored mean viability with MMS 3.63e6.

For Rab10, the entry reads mean viability with MMS 3.83e6. With knock-down of nbs, the record shows mean viability with MMS 3.60e6. After knock-down of CG11425, the screen gave mean viability with MMS 3.40e6. CG33160 gave mean viability with MMS 3.49e6. After knock-down of Cp7Fa (Chorion protein a at 7F) #1 the results were mean viability with MMS 3.53e6. Cp7Fa (Chorion protein a at 7F) #2 showed mean viability with MMS 3.40e6.

Pus1 (Pseudouridine synthase 1) scored mean viability with MMS 3.64e6. vih (vihar) scored mean viability with MMS 3.17e6.

Reformatted: 2 of the entries above.
Gene	reagent	mean viability with MMS
nbs	1	3.60e6
CG11425	1	3.40e6

The listing continues:
After knock-down of Ir100a (Ionotropic receptor 100a), the screen gave mean viability with MMS 3.73e6. Silencing of mRpL14 (mitochondrial ribosomal protein L14) came out at: mean viability with MMS 3.52e6. After knock-down of CG5079 #1, the screen gave mean viability with MMS 3.01e6. Against CG5079 #2, the entry reads mean viability with MMS 3.63e6. Against CG12836 the deposit lists mean viability with MMS 3.65e6. For CG3062, the entry reads mean viability with MMS 3.75e6.

After knock-down of CG13887, the screen gave mean viability with MMS 3.52e6. With knock-down of CG7330 #1, the record shows mean viability with MMS 3.52e6. CG7330 #2 showed mean viability with MMS 3.41e6. For SLC5A11 (Sodium/solute co-transporter-like 5A11) the deposit lists mean viability with MMS 3.69e6. Against kappaB-Ras + CG30503 #1, the entry reads mean viability with MMS 3.51e6. kappaB-Ras + CG30503 #2 scored mean viability with MMS 3.55e6.

After knock-down of CG14325, the record shows mean viability with MMS 3.45e6. Depletion of eIF3c (eukaryotic translation initiation factor 3 subunit c) came out at: mean viability with MMS 3.04e6. After knock-down of spn-D (spindle D), the screen gave mean viability with MMS 3.53e6. After knock-down of Nup35 (Nucleoporin 35kDa), the record shows mean viability with MMS 3.52e6. After knock-down of CG31445, the screen gave mean viability with MMS 3.58e6. Knock-down of CG12947 resulted in: mean viability with MMS 3.82e6.

Against CG13731, the entry reads mean viability with MMS 3.50e6. RabGGTb (Rab geranylgeranyltransferase subunit beta) showed mean viability with MMS 3.64e6. unc-104 (uncoordinated-104) showed mean viability with MMS 3.58e6.
